Structures can show the parent of a compound that is named as a salt. This is one part of the list. This data set is noisy: repeats of one test often differ as much as different tests do.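 Free-swimming zebrafish larvae were scored for O-bend response probability to dark flashes (naive: first five; training: remaining flashes of four 60-flash blocks; test: later 60-flash block) and for turning toward alternating leftward/rightward LED motion (OMR). Six treated larvae were compared with sixty 0.1% DMSO controls; |SSMD|≥2 defined a hit.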
Legend:
Conditions in all cases: 10 µM; pre-incubation: 30-90 min
[1] = test system: Danio rerio larvae (5 dpf, TLF); assay: OMR-Perf (SSMD vs DMSO vehicle); higher = higher than vehicle (e.g. higher dark-flash O-bend response probability, or better optomotor performance)
[2] = test system: Danio rerio larvae (5 dpf, TLF); assay: Prob-Test (SSMD vs DMSO vehicle); higher = higher than vehicle (e.g. higher dark-flash O-bend response probability, or better optomotor performance)
[3] = test system: Danio rerio larvae (5 dpf, TLF); assay: Prob-Naive (SSMD vs DMSO vehicle); higher = higher than vehicle (e.g. higher dark-flash O-bend response probability, or better optomotor performance)
[4] = test system: Danio rerio larvae (5 dpf, TLF); assay: Prob-Train (SSMD vs DMSO vehicle); higher = higher than vehicle (e.g. higher dark-flash O-bend response probability, or better optomotor performance)

| Structure (SMILES) | OMR-Perf [1] | Prob-Test [2] | Prob-Naive [3] | Prob-Train [4] |
| --- | --- | --- | --- | --- |
| COc1c2ccoc2cc2oc(=O)ccc12 [Bergapten] | 0.0767 | -0.115 | -0.419 | -0.207 |
| CC(=O)/N=c1\sc(S(N)(=O)=O)nn1C [Methazolamide] | -1.27 | -0.316 | 0.302 | -0.31 |
| O=C(NCc1ccccc1)c1csc(Nc2ccncn2)n1 [Thiazovivin] | -0.445 | -0.188 | 0.113 | -0.204 |
| CC1=NN(c2ccc(C)c(C)c2)C(=O)/C1=N/Nc1cccc(-c2cccc(C(=O)O)c2)c1O [Eltrombopag] | -0.0806 | -0.347 | 0.375 | -0.762 |
| O=c1cc[nH]c(=O)[nH]1 [Uracil] | -0.206 | 0.513 | 0.241 | 0.379 |
| C[C@@H](Oc1cc(-n2cnc3ccc(CN4CCN(C)CC4)cc32)sc1C(N)=O)c1ccccc1C(F)(F)F | -0.72 | -0.446 | -0.13 | -0.765 |
| Cl.Cl.NCCc1c[nH]cn1 [Histamine 2HCl] | -0.293 | -0.0995 | 0.389 | 0.198 |
| O=C(O)[C@H](Cc1c[nH]c2ccccc12)N1C(=O)c2ccccc2C1=O | 0.125 | -0.379 | 0.146 | -0.632 |
| CCOc1ccccc1N/N=C1/C(=O)N(c2nc(-c3ccccc3)cs2)N=C1C | -0.498 | -0.116 | 0.0292 | -1.13 |
| Cc1cc2nc3c(=O)[nH]c(=O)nc-3n(C[C@H](O)[C@H](O)[C@H](O)CO)c2cc1C [Riboflavin (Vitamin B2)] | 0.131 | -0.671 | -0.142 | -0.728 |
| CS(=O)(=O)c1ccc(C(=O)Nc2ccc(Cl)c(-c3ccccn3)c2)c(Cl)c1 [Vismodegib (GDC-0449)] | -0.513 | -0.0835 | 0.153 | -0.145 |
| CC(=O)O[C@]12CO[C@@H]1C[C@H](O)[C@]1(C)C(=O)[C@H](O)C3=C(C)[C@H](OC(=O)[C@H](O)[C@@H](NC(=O)OC(C)(C)C)c4ccccc4)C[C@](O)([C@H](OC(=O)c4ccccc4)C21)C3(C)C (some centres not stated) [Docetaxel] | -0.0586 | -0.226 | -0.254 | 0.161 |
| CCC[C@@H]1O[C@@H]2C[C@H]3[C@@H]4CCC5=CC(=O)C=C[C@]5(C)[C@@H]4[C@H](O)C[C@]3(C)[C@@]2(C(=O)CO)O1 [Budesonide] | -0.439 | 0.402 | 0.1 | -0.0352 |
| Cl.NCCS [Cysteamine HCl] | -0.321 | -0.351 | 0.585 | 0.0487 |
| OCc1ccccc1O[C@@H]1O[C@H](CO)[C@@H](O)[C@H](O)[C@H]1O [Salicin] | 0.328 | 0.2 | -0.0187 | 0.205 |
| Cc1csc(-c2nnc(Nc3ccc(Oc4ncccc4-c4ccnc(N)n4)cc3)c3ccccc23)c1 | -0.668 | -0.195 | -0.908 | -0.859 |
| CCN1CCN(C(=O)N[C@@H](C(=O)N[C@@H]2C(=O)N3C(C(=O)O)=C(CSc4nnnn4C)CS[C@H]23)c2ccc(O)cc2)C(=O)C1=O [Cefoperazone] | -0.465 | 0.428 | 0.493 | 0.0909 |
| Cc1cc(C(C)(C)C)c(O)c(C)c1CC1=NCCN1.Cl [Oxymetazoline HCl] | 0.0746 | -0.176 | 0.644 | -0.0175 |
| CCOC(=O)[C@H](CCc1ccccc1)N[C@@H](C)C(=O)N1C(=O)N(C)C[C@@H]1C(=O)O [Imidapril HCl] | -0.0182 | 0.393 | 0.573 | 0.439 |
| CN(C)CCc1c[nH]c2ccc(Cn3cncn3)cc12.O=C(O)c1ccccc1 [Rizatriptan Benzoate] | 0.399 | 0.31 | 0.511 | 0.552 |
| Cc1cc(C)c(/C=C2\C(=O)Nc3ccccc32)[nH]1 [Semaxanib (SU5416)] | -0.0243 | -0.88 | -0.701 | -0.763 |
| CC(C)Cn1cnc2c(N)nc3ccccc3c21 [Imiquimod] | -0.291 | 0.0358 | 0.459 | 0.379 |

| Structure (SMILES) | OMR-Perf [1] | Prob-Test [2] | Prob-Naive [3] | Prob-Train [4] |
| --- | --- | --- | --- | --- |
| Cc1ccc(Nc2c(F)cccc2Cl)c(CC(=O)O)c1 [Lumiracoxib] | -0.3 | -0.111 | -0.996 | -0.68 |
| CC(=O)OCC(CCn1cnc2cnc(N)nc21)COC(C)=O [Famciclovir] | -0.418 | 0.34 | 0.208 | 0.372 |
| O=C1C[C@@H](c2ccc(O)cc2)Oc2cc(O)cc(O)c21 [Naringenin] | 0.423 | -0.493 | -0.112 | -0.202 |
| COc1c(C)cnc(Cn2cnc3c(Cl)nc(N)nc32)c1C | -0.237 | -0.809 | -0.102 | -0.101 |
| CC1(C)O[C@@H]2C[C@H]3[C@@H]4C[C@H](F)C5=CC(=O)C=C[C@]5(C)[C@]4(F)[C@H](O)C[C@]3(C)[C@@]2(C(=O)CO)O1 [Fluocinolone Acetonide] | -0.596 | 0.436 | -0.189 | -0.0911 |
| COCCCC/C(=N\OCCN)c1ccc(C(F)(F)F)cc1.O=C(O)/C=C/C(=O)O [Fluvoxamine maleate] | -0.0755 | -0.276 | -0.544 | -0.921 |
| COc1ccc2[n-]c(S(=O)Cc3ncc(C)c(OC)c3C)nc2c1.COc1ccc2[n-]c(S(=O)Cc3ncc(C)c(OC)c3C)nc2c1.[Mg+2] (configuration not stated) [Esomeprazole magnesium (Nexium)] | -0.534 | -0.591 | -0.142 | -0.819 |
| CN(C)CCC=C1c2ccccc2CCc2ccccc21.Cl [Amitriptyline HCl] | -1.05 | -1.58 | -0.161 | -1.53 |
| Cc1cn([C@H]2C[C@H](N=[N+]=[N-])[C@@H](CO)O2)c(=O)[nH]c1=O [Zidovudine] | -0.199 | -0.193 | 0 | 0.443 |
| CS(=O)(=O)Nc1ccc([N+](=O)[O-])cc1Oc1ccccc1 [Nimesulide] | -0.969 | 0.761 | 0.13 | 0.658 |
| O=C(O)C1=CO[C@@H](O[C@@H]2O[C@H](CO)[C@@H](O)[C@H](O)[C@@H]2O)[C@@H]2C(CO)=CC[C@H]12 [Geniposidic acid] | 0.0732 | 0.277 | -0.365 | 0.39 |
| Cl.O=C1Cc2cc(CCN3CCN(c4nsc5ccccc45)CC3)c(Cl)cc2N1 [Ziprasidone HCl] | -0.67 | -1.3 | -0.0296 | -1.67 |
| CCOC(=O)[C@H](CCc1ccccc1)N[C@@H](C)C(=O)N1Cc2ccccc2C[C@H]1C(=O)O.Cl [Quinapril HCl] | -0.392 | 0.513 | 0.105 | 0.297 |
| CNC[C@H](O)c1ccc(O)c(O)c1.O=C(O)[C@H](O)[C@@H](O)C(=O)O [Epinephrine Bitartrate] | -0.399 | 0.289 | -0.0304 | -0.0218 |
| CC(N/C(=N/C#N)Nc1ccncc1)C(C)(C)C (configuration not stated) [Pinacidil] | 0.213 | 0.167 | 0.457 | 0.43 |
| CCCCOc1c(C(=O)c2c(F)cc(C)cc2F)cnc2[nH]ncc12 | 0.514 | 0.124 | -0.043 | -0.315 |
| CN[C@@H]1CC[C@@H](c2ccc(Cl)c(Cl)c2)c2ccccc21.Cl [Sertraline HCl] | -0.672 | -1.58 | 0.389 | -1.19 |
| O=C([O-])C(O)Cc1ccc(O)c(O)c1.[Na+] (configuration not stated) [Sodium Danshensu] | -0.357 | 0.188 | -0.0234 | -0.167 |
| Cn1c([N+](=O)[O-])cnc1COC(N)=O [Ronidazole] | -0.572 | -0.505 | -0.265 | -0.188 |
| CNC[C@H](O)[C@@H](O)[C@H](O)[C@H](O)CO [Meglumine] | 0.19 | 0.0539 | 0.285 | 0.303 |
| CC[C@@H](CO)NCCN[C@@H](CC)CO.Cl.Cl [Ethambutol HCl] | -0.275 | -0.257 | 0 | 0.000824 |

2 compounds drawn at random from the list so far, as already listed:

| Structure (SMILES) | OMR-Perf [1] | Prob-Test [2] | Prob-Naive [3] | Prob-Train [4] |
| --- | --- | --- | --- | --- |
| CCC[C@@H]1O[C@@H]2C[C@H]3[C@@H]4CCC5=CC(=O)C=C[C@]5(C)[C@@H]4[C@H](O)C[C@]3(C)[C@@]2(C(=O)CO)O1 [Budesonide] | -0.439 | 0.402 | 0.1 | -0.0352 |
| CCOc1ccccc1N/N=C1/C(=O)N(c2nc(-c3ccccc3)cs2)N=C1C | -0.498 | -0.116 | 0.0292 | -1.13 |

Source: the supplement of paper PMC10727501
